Reference: PMC2750749
No constants are given. Whether binding was seen depends on the method and setting. Binding seen in cells or lysates may run through a third protein. Binding calls can cover weak binding; strength is not graded here. For some assays here: Tags and fused reporters may be left off the sequences shown.

The chains behind the UniProt entries cited, without tags or fusion partners. Where a name states a change or a piece, a line headed by the entry shows the natural chain unless it says otherwise.
UniProt P09038: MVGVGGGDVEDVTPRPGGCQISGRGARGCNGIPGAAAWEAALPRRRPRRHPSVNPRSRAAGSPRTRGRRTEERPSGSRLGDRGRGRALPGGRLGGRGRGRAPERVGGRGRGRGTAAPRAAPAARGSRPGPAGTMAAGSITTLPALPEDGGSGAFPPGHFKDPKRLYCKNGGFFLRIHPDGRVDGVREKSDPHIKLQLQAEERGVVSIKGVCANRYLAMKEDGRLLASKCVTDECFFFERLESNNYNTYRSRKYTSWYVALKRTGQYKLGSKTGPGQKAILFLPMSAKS

How the values were obtained:
[1] = target: T1, syndecan-1 (human (endogenous in STAV-AB)) (UniProt P18827); assay: co-IP; Nuclear Complex Co-IP Kit (Active Motif); 100 ug nuclear extract of sub-confluent STAV-AB cells stably transfected with syndecan-1/EGFP or EGFP vector, 3 ug goat polyclonal antibody against the C-terminus of syndecan-1 (C-20), protein G Sepharose; precipitates slot-blotted and probed with anti-FGF-2; no-antibody negative control
T1 sequence: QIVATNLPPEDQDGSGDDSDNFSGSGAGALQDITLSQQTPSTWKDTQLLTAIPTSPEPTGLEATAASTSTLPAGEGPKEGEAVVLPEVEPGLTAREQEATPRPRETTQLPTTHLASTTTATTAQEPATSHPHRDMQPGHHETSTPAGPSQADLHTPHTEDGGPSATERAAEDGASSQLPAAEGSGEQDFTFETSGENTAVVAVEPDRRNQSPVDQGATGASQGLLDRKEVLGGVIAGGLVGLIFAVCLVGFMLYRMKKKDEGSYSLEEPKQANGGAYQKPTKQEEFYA

[2] = target: T2, syndecan-1/EGFP fusion protein (human) (UniProt P18827); assay: as above
T2 sequence: T1 sequence

binding [1]: binds
binding [2]: binds
Substance: basic fibroblast growth factor (FGF-2) (from UniProt P09038)
